Experimental data taken from article PMC4985585.
Results are given in words; binding and its absence hold for the method and conditions named. Binding seen in cells or lysates may run through a third protein. A yes stands for co-enrichment or nearness to the bait. Other partners may have been found.

By UniProt entry, the sequences of proteins in these tests, tags left out.
UniProt Q9ERK7: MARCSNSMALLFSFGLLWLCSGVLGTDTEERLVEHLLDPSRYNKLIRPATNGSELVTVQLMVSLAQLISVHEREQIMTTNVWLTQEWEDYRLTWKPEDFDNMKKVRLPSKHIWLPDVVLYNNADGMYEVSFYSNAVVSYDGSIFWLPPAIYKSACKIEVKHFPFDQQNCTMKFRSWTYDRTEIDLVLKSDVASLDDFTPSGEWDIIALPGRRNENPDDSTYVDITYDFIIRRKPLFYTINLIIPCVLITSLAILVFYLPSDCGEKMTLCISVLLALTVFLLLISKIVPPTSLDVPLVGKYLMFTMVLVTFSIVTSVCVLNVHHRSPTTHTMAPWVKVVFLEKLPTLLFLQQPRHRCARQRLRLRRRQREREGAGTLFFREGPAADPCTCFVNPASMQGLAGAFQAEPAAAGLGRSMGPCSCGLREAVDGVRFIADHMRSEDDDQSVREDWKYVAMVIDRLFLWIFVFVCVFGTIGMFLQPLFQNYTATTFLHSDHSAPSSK

These binders were tested against Neuronal acetylcholine receptor subunit β2 (mouse) (mouse (endogenous in cortex)) (UniProt Q9ERK7) (assay: affinity purification with mass spectrometry; β2*-nAChRs captured on mAb295-coupled M270 Dynabeads from a Triton X-100 extract of pooled mouse cortex membranes after DSP cross-linking; eight-plex iTRAQ LC-MS/MS; β2+/+, β2+/-, α4+/-β2+/- and β2-/- mice given saline or nicotine (4 mg/kg/h, 10 d); proteins found in both biological replicates).

Row | Binder | binding
1 | ATP synthase subunit delta, mito (mouse) (protein, UniProt Q9D3D9 23-168) AEAAAAPAPAAGPGQMSFTFASPTQVFFDSANVKQVDVPTLTGAFGILASHVPTLQVLRPGLVVVHTEDGTTTKYFVSSGSVTVNADSSVQLLAEEAVTLDMLDLGAARANLEKAQSELSGAADEAARAEIQIRIEANEALVKALE | binds
2 | Complement C1q subcomponent subunit A (mouse) (protein, UniProt P98086 23-245) EDVCRAPNGKDGAPGNPGRPGRPGLKGERGEPGAAGIRTGIRGFKGDPGESGPPGKPGNVGLPGPSGPLGDSGPQGLKGVKGNPGNIRDQPRPAFSAIRQNPMTLGNVVIFDKVLTNQESPYQNHTGRFICAVPGFYYFNFQVISKWDLCLFIKSSSGGQPRDSLSFSNTNNKGLFQVLAGGTVLQLRRGDEVWIEKDPAKGRIYQGTEADSIFSGFLIFPSA | binds
3 | Myosin light polypeptide 6 (mouse) (protein, UniProt Q60605 1-151) MCDFTEDQTAEFKEAFQLFDRTGDGKILYSQCGDVMRALGQNPTNAEVLKVLGNPKSDEMNVKVLDFEHFLPMLQTVAKNKDQGTYEDYVEGLRVFDKEGNGTVMGAEIRHVLVTLGEKMTEEEVEMLVAGHEDSNGCINYEAFVRHILSG | binds
4 | Mito 2-oxoglutarate/malate carrier protein (mouse) (protein, UniProt Q9CR62 1-314) MAATASPGAGRMDGKPRTSPKSVKFLFGGLAGMGATVFVQPLDLVKNRMQLSGEGAKTREYKTSFHALTSILKTEGLKGIYTGLSAGLLRQATYTTTRLGIYTVLFERLTGADGTPPGFLLKALIGMTAGATGAFVGTPAEVALIRMTADGRLPADQRRGYKNVFNALVRIAREEGVPTLWRGCIPTMARAVVVNAAQLASYSQSKQFLLDSGYFSDNILCHFCASMISGLVTTAASMPVDIVKTRIQNMRMIDGKPEYKNGLDVLLKVVRYEGFFSLWKGFTPYYARLGPHTVLTFIFLEQMNKAYKRLFLSG | binds
5 | Neurofilament heavy polypeptide (mouse) (protein, UniProt P19246 1-1090) MMSFGSADALLGAPFAPLHGGGSLHYSLSRKAGPGGTRSAAGSSSGFHSWARTSVSSVSASPSRFRGAASSTDSLDTLSNGPEGCVVAAVAARSEKEQLQALNDRFAGYIDKVRQLEAHNRSLEGEAAALRQQQAGRAAMGELYEREVREMRGAVLRLGAARGQLRLEQEHLLEDIAHVRQRLDEEARQREEAEAAARALARFAQEAEAARVELQKKAQALQEECGYLRRHHQEEVGELLGQIQGCGAAQAQAQAEARDALKCDVTSALREIRAQLEGHAVQSTLQSEEWFRVRLDRLSEAAKVNTDAMRSAQEEITEYRRQLQARTTELEALKSTKESLERQRSELEDRHQADIASYQDAIQQLDSELRNTKWEMAAQLREYQDLLNVKMALDIEIAAYRKLLEGEECRIGFGPSPFSLTEGLPKIPSISTHIKVKSEEMIKVVEKSEKETVIVEGQTEEIRVTEGVTEEEDKEAQGQEGEEAEEGEEKEEEEGAAATSPPAEEAASPEKETKSRVKEEAKSPGEAKSPGEAKSPAEAKSPGEAKSPGEAKSPGEAKSPAEPKSPAEPKSPAEAKSPAEPKSPATVKSPGEAKSPSEAKSPAEAKSPAEAKSPAEAKSPAEAKSPAEAKSPAEAKSPATVKSPGEAKSPSEAKSPAEAKSPAEAKSPAEAKSPAEVKSPGEAKSPAEPKSPAEAKSPAEVKSPAEAKSPAEVKSPGEAKSPAAVKSPAEAKSPAAVKSPGEAKSPGEAKSPAEAKSPAEAKSPIEVKSPEKAKTPVKEGAKSPAEAKSPEKAKSPVKEDIKPPAEAKSPEKAKSPVKEGAKPPEKAKPLDVKSPEAQTPVQEEAKHPTDIRPPEQVKSPAKEKAKSPEKEEAKTSEKVAPKKEEVKSPVKEEVKAKEPPKKVEEEKTLPTPKTEAKESKKDEAPKEAPKPKVEEKKETPTEKPKDSTAEAKKEEAGEKKKAVASEEETPAKLGVKEEAKPKEKTETTKTEAEDTKAKEPSKPTETEKPKKEEMPAAPEKKDTKEEKTTESRKPEEKPKMEAKVKEDDKSLSKEPSKPKTEKAEKSSSTDQKESQPPEKTTEDKATKGEK | binds
6 | Phosphate carrier protein, mito (mouse) (protein, UniProt Q8VEM8 46-357) AVEEYSCEFGSMKYYALCGFGGVLSCGLTHTAVVPLDLVKCRMQVDPQKYKGIFNGFSITLKEDGVRGLAKGWAPTLIGYSMQGLCKFGFYEVFKALYSNILGEENTYLWRTSLYLASSASAEFFADIALAPMEAAKVRIQTQPGYANTLREAVPKMYKEEGLNAFYKGVAPLWMRQIPYTMMKFACFERTVEALYKFVVPKPRSECTKAEQLVVTFVAGYIAGVFCAIVSHPADSVVSVLNKEKGSTASQVLQRLGFRGVWKGLFARIIMIGTLTALQWFIYDSVKVYFRLPRPPPPEMPESLKKKLGLTE | binds
7 | ATP synthase subunit b, mito (mouse) (protein, UniProt Q9CQQ7 43-256) PLPPLPEYGGKVRLGLIPEEFFQFLYPKTGVTGPYVLGTGLSLYFLSKEIYVITPETFSTISVVGLIVYVIKKYGASFGEFIDKLNEEKIAQLEEVKQSSMKQIQDAIDMEKAQQALVQKRHYLFDVQRNNIALALEVTYRERLHKAYKEVKNRLDYHISVQNMMRRKEEEHMIDWVEKHVVKSISVQQEKETIAKCIEDLKLLAKKAQAQPIM | binds
8 | ADP/ATP translocase 2 (mouse) (protein, UniProt P51881 1-298) MTDAAVSFAKDFLAGGVAAAISKTAVAPIERVKLLLQVQHASKQITADKQYKGIIDCVVRIPKEQGVLSFWRGNLANVIRYFPTQALNFAFKDKYKQIFLGGVDKRTQFWRYFAGNLASGGAAGATSLCFVYPLDFARTRLAADVGKAGAEREFKGLGDCLVKIYKSDGIKGLYQGFNVSVQGIIIYRAAYFGIYDTAKGMLPDPKNTHIFISWMIAQSVTAVAGLTSYPFDTVRRRMMMQSGRKGTDIMYTGTLDCWRKIARDEGSKAFFKGAWSNVLRGMGGAFVLVLYDEIKKYT | binds
9 | ATP synthase subunit e, mito (mouse) (protein, UniProt Q06185 1-71) MVPPVQVSPLIKFGRYSALIIGMAYGAKRYSYLKPRAEEERRIAAEEKKRLDELKRIERELAEAQDDSILK | binds
10 | 2',3'-cyclic-nucleotide 3'-phosphodiesterase (mouse) (protein, UniProt P16330 1-420) MNTSFTRKSHTFLPKLFFRKMSSSGAKEKPELQFPFLQDEDTVATLHECKTLFILRGLPGSGKSTLARLILEKYHDGTKMVSADAYKIIPGSRADFSEAYKRLDEDLAGYCRRDIRVLVLDDTNHERERLDQLFEMADQYQYQVVLVEPKTAWRLDCAQLKEKNQWQLSADDLKKLKPGLEKDFLPLYFGWFLTKKSSETLRKAGQVFLEELGNHKAFKKELRHFISGDEPKEKLELVSYFGKRPPGVLHCTTKFCDYGKAAGAEEYAQQEVVKRSYGKAFKLSISALFVTPKTAGAQVVLTDQELQLWPSDLDKPSASEGLPPGSRAHVTLGCAADVQPVQTGLDLLDILQQVKGGSQGEAVGELPRGKLYSLGKGRWMLSLTKKMEVKAIFTGYYGKGKPVPIHGSRKGGAMQICTII | binds

Now from value to binder:

Row | binding | Binder
11 | binds | NADH dehydrogenase [ubiquinone] 1 subunit C2 (mouse) (protein, UniProt Q9CQ54 1-120) MMNGRPGHEPLKFLPDEARSLPPPKLNDPRLVYMGLLGYCTGLMDNMLRMRPVMRAGLHRQLLFVTSFVFAGYFYLKRQNYLYAVKDHDMFGYIKLHPEDFPEKEKKTYAEILEPFHPVR
12 | binds | NADH dehydrogenase [ubiquinone] iron-sulfur protein 5 (mouse) (protein, UniProt Q99LY9 1-106) MPFLDIQKKLGISLDRHFMFLSAEQPYKNAARCHAFEKEWIECAHGIGGTRAKKECKIEFDDFEECLLRYKTMRRMHDIKKQREKLMKEGKYTPPPHHSGREEPRP
13 | binds | NADH dehydrogenase [ubiquinone] 1 α subcomplex subunit 10, mito (mouse) (protein, UniProt Q99LC3 36-355) LRYGLLAAILGDKTTKKLHEYSRVITVDGNICSGKNKLAKEIAQQLGMKHYPEAGIQYSSTTTGDGRPLDIEFSGSCSLEKFYDDPKSNDGNSYRLQSWLYASRLLQYADALEHLLSTGQGVVLERSIYSDFVFLEAMYNQGYIRKQCVDHYNEIKRLTLPEYLPPHAVIYIDVPVPEVQSRIQKKGDPHEMKVTSAYLQDIENAYKKTFLPKMSEMCEVLVYDSWEAEDPTKVVEDIEYLKYNKGPWLKQDDWTFHYLRMLVQDKTEVLNYTTIPVYLPEITIGAHQGSRIYNSFRELPGRKYAPGYNAEVGDKWIWLK
14 | binds | NADH dehydrogenase [ubiquinone] 1 α subcomplex subunit 5 (mouse) (protein, UniProt Q9CPP6 1-116) MAGLLKKTTGLVGLAVCDTPHERLTILYTKTLDILKHFPKHAAYRKYTEQITNEKLDMVKAEPDVKKLEALLQGGEVEEVILQAEKELSLARKMLKWKPWEPLVEEPPANQWKWPI
15 | binds | NADH dehydrogenase [ubiquinone] 1 β subcomplex subunit 7 (mouse) (protein, UniProt Q9CR61 1-137) MGAHLTRRYLWDASVEPDPEKIPSFPPDLGFPERKERVMVATQQEMMDAQLTLQQRDYCAHYLIRLLKCKRDSFPNFLACKHEQHDWDYCEHLDYVKRMKEFERERRLLQRKKRRALKEARVAQGQGEGEVGPEVAL
16 | binds | NADH dehydrogenase [ubiquinone] 1 β subcomplex subunit 4 (mouse) (protein, UniProt Q9CQC7 1-129) MSGSKYKPAPLATLPSTLDPAEYDVSPETRRAQVERLSIRARLKREYLLQYNDPKRVSHIEDPALIRWTYARSANIYPNFRPTPKNSLLGAVAGFGPLIFWYYVFKTDRDRKERLIQEGKLDRKFNISY
17 | binds | NADH dehydrogenase [ubiquinone] 1 β subcomplex subunit 3 (mouse) (protein, UniProt Q9CQZ6 1-104) MAAGHGHEHGHEHGHGHGKMELPDYRQWKIEGTPLETVQKKLAARGLRDPWARNEAWRYMGGFAGNITFPSVILKGFKWGFAAFVVALGAEYFLDSQNGDKKHH
18 | binds | NADH dehydrogenase [ubiquinone] 1 β subcomplex subunit 9 (mouse) (protein, UniProt Q9CQJ8 1-179) MAFCAPPAYLTHQQKVLRLYKRALRHLESWCIHRDKYRYFACLMRARFEEHKNEKDMMRATQLLREAEEEFWQNQHPQPYIFPDSPGGTSFERYECYKVPEWCLDYWHPSEKAMYPDYFSKREQWKKLRMESWDREVKQLQEETSPDGIMTEALPPARREGDLPPLWWHIVTRPRERPT
19 | binds | α-Internexin (mouse) (protein, UniProt P46660 1-501) MSFGSEHYLCSASSYRKVFGDSSRLSARLSGPGGSGSFRSQSLSRSNVASTAACSSASSLGLGLAYRRLPASDGLDLSQAAARTNEYKIIRTNEKEQLQGLNDRFAVFIEKVHQLETQNRALEAELAALRQRHAEPSRVGELFQRELRELRAQLEEASSARAQALLERDGLAEEVQRLRARCEEESRGREGAERALKAQQRDVDGATLARLDLEKKVESLLDELAFVRQVHDEEVAELLATLQASSQAAAEVDVAVAKPDLTSALREIRAQYESLAAKNLQSAEEWYKSKFANLNEQAARSTEAIRASREEIHEYRRQLQARTIEIEGLRGANESLERQILELEERHSAEVAGYQDSIGQLESDLRNTKSEMARHLREYQDLLNVKMALDIEIAAYRKLLEGEETRFSTGGLSISGLNPLPNPSYLLPPRILSSTASKVSSAGLSLKKEEEEEEEEASKEVSKKTSKVGEGFEETLGEAVISTKKTGKSATEESTSSSQKM
